The results in this text go back to PMC10927582.

Chains of the proteins cited; added tags and fusions are not shown. Lines headed by an entry give the natural chain unless they say otherwise; changes in a name come on top. A line that says so, or that is headed by a name, gives the form on record, which may keep a tag or linker. Residues count along the entry.
PINK1-HA R543D (Q9BXM7, form named): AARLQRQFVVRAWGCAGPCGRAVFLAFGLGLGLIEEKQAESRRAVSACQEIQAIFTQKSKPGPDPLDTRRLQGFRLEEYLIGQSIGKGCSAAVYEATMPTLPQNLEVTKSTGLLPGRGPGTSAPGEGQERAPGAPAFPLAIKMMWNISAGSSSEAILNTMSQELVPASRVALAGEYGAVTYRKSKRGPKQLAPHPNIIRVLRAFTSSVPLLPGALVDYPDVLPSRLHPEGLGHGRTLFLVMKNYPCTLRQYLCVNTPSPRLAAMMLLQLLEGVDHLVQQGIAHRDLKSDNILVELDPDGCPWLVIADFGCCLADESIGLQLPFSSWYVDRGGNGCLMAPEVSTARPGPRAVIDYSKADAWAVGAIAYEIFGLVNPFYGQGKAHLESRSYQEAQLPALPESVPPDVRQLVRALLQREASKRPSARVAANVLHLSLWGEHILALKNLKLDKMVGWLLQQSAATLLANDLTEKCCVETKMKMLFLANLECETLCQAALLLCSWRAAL
UniProt Q3ZCQ8, residues 45-353: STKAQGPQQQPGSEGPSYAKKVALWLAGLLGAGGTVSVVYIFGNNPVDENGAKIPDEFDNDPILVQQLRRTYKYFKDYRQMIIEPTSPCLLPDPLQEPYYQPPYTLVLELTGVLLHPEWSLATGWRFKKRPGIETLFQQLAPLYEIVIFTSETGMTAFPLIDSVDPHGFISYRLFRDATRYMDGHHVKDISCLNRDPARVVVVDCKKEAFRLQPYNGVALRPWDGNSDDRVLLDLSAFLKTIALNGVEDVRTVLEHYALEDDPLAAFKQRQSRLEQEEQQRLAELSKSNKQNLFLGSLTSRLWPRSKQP
UniProt Q15388: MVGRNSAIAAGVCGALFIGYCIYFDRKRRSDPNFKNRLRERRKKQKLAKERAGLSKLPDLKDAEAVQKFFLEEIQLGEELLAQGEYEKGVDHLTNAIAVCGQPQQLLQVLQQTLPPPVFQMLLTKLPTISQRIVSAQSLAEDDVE

One assay has as its target T1, Tim23-FLAG (UniProt O14925).
T1 sequence: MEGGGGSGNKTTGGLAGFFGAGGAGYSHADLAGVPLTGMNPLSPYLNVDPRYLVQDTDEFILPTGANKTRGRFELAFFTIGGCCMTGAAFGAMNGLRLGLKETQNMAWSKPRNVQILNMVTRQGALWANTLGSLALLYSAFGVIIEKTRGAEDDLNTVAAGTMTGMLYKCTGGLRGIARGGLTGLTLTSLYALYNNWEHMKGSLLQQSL
As to the kind of experiment: co-IP; FLAG immunocapture from isolated mitochondria of HEK293T cells transfected with Tim50-FLAG or Tim23-FLAG; 20 µM CCCP 4 h; elution with FLAG peptide; immunoblot. (In western blotting, separated proteins are transferred to a membrane and probed.)

For a further assay, the target named is PINK1-HA R543D (human) (UniProt Q9BXM7). Description: co-IP; HA immunocapture (anti-HA magnetic beads) from isolated mitochondria of U2OS PINK1 KO cells transfected with PINK1-HA (WT or mutants); 20 µM CCCP 4 h or ΔOTC for 36 h; elution with HA peptide, 0.2% digitonin; immunoblot.
Assay [1] deals with Tim50-FLAG (UniProt Q3ZCQ8). Description: co-IP; Tim50-FLAG immunopurification in the presence of the Tom20-binding deficient PINK1 mutants (SI Appendix, Fig. S9).
Assay [2] has as its target Tim50-FLAG (UniProt Q3ZCQ8). As to the kind of experiment: co-IP; FLAG immunocapture from isolated mitochondria of HEK293T cells transfected with Tim50-FLAG or Tim23-FLAG; 20 µM CCCP 4 h; elution with FLAG peptide; immunoblot.
Assay [3] has as its target Tim50-FLAG (UniProt Q3ZCQ8). Description: co-IP; FLAG immunocapture from isolated mitochondria of WT U2OS cells transfected with Tom22-FLAG or Tim50-FLAG; 20 µM CCCP or DMSO 4 h; elution with FLAG peptides; immunoblot.

Results are given in words; binding and its absence hold for the method and conditions named. In cells and extracts the contact can be indirect. Some binding calls cover weakened binding; strength is not graded here. For some assays here: Where a sequence is shown, tags or fusion partners need not be part of it.

For “Tim50 subunit of the TIM23 complex, endogenous (from UniProt Q3ZCQ8 45-353)”, in the assay with Tim23-FLAG, the binding entry is “binds”.

For “Tom20 subunit of the TOM complex, endogenous (from UniProt Q15388 1-145)”, in the assay with PINK1-HA R543D (human), the binding result is listed as “binds”.

B1: Tim23 subunit of the TIM23 complex, endogenous (protein, UniProt O14925 1-209)
chain: T1 sequence
Take B1: the binding result with Tim50-FLAG [1], in the assay with Tim50-FLAG [2] and with Tim50-FLAG [3] was “binds” each time.

B2: Tim22 subunit of the TIM22 translocase, endogenous (protein, UniProt Q9Y584 1-194)
chain: MAAAAPNAGGSAPETAGSAEAPLQYSLLLQYLVGDKRQPRLLEPGSLGGIPSPAKSEEQKMIEKAMESCAFKAALACVGGFVLGGAFGVFTAGIDTNVGFDPKDPYRTPTAKEVLKDMGQRGMSYAKNFAIVGAMFSCTECLIESYRGTSDWKNSVISGCITGGAIGFRAGLKAGAIGCGGFAAFSAAIDYYLR
For B2, the binding result with Tim23-FLAG, with Tim50-FLAG [2] and with Tim50-FLAG [3] was “no binding” each time.
